Results are given in words; binding and its absence hold for the method and conditions named. Binding seen in cells or lysates may run through a third protein. Some entries that bind do so weakly or less than the wild type.

Protein sequences, listed by entry. Tags and fused reporters are not part of them.
UniProt P62198: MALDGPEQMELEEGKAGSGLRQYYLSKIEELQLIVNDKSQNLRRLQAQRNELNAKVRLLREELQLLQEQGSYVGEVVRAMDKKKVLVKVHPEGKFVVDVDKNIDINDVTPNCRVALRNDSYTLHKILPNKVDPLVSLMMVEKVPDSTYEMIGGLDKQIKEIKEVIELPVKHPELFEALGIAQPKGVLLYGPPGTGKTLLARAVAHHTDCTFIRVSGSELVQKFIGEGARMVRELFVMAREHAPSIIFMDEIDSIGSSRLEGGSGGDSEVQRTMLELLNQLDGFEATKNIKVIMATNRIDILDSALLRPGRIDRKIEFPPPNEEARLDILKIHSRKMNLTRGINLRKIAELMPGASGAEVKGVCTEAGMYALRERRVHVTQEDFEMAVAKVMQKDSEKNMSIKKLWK
UniProt P67999: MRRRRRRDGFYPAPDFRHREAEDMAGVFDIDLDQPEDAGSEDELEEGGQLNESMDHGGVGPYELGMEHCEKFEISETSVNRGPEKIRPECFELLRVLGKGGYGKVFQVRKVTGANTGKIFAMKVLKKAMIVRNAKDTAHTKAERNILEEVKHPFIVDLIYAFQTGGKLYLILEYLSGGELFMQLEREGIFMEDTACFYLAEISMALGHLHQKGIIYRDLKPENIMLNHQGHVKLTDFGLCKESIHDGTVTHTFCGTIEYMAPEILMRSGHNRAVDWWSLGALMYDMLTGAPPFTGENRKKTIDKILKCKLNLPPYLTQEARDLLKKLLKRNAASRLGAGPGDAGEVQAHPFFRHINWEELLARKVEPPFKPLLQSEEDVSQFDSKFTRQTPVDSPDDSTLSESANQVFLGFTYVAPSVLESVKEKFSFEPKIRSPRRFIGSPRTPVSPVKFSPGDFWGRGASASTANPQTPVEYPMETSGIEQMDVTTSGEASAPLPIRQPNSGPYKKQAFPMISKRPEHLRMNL

In assay [1] the target is Rpt6 subunit of the 19S proteasome (rat) (rat (endogenous in hippocampus)) (UniProt P62198). Kind of assay: co-IP; Rpt6 antibody (5 ug) or mouse IgG with protein G-agarose on post-mitochondrial supernatant of adult SD rat hippocampi; lysis in 50 mM Tris pH 7.5, 150 mM NaCl, 1% NP-40, 2 mM EDTA with RNase inhibitor; washes with 150, 300 and 450 mM NaCl; 4°C; western blot.
The target of assay [2] is T1, MOV10, helicase and RNA-binding protein (rat) (rat (endogenous in hippocampus and in cultured hippocampal neurons)) (UniProt D3ZUC2).
T1 sequence: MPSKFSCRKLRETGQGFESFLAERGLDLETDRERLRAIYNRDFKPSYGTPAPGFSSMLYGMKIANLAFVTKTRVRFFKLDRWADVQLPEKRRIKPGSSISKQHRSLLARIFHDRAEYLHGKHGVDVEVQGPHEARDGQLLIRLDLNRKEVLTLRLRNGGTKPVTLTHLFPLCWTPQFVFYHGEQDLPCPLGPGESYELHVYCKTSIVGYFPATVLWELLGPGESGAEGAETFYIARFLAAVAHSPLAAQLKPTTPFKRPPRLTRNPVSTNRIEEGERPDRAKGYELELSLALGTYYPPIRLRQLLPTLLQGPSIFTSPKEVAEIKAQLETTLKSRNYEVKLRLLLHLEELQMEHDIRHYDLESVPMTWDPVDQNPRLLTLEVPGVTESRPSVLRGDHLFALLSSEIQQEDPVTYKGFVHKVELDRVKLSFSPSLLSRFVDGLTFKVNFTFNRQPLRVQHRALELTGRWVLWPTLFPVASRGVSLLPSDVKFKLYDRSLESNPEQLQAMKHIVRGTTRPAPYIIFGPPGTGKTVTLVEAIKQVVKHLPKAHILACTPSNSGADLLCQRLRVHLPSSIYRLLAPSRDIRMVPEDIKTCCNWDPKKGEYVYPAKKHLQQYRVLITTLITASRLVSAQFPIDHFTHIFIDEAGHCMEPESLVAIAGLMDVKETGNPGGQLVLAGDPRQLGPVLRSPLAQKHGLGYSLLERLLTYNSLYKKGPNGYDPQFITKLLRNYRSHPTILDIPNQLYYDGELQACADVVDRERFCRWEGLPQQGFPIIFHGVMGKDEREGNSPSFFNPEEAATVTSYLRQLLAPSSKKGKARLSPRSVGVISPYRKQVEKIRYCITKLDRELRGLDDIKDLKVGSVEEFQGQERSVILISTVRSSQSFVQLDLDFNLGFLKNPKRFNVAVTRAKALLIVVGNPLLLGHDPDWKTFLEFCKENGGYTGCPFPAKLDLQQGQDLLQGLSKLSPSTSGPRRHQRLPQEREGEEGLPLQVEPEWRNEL
Kind of assay: co-IP; MOV10 antibody (5 ug) or rabbit IgG with protein G-agarose on post-mitochondrial supernatant of adult SD rat hippocampi; lysis in 50 mM Tris pH 7.5, 150 mM NaCl, 1% NP-40, 2 mM EDTA with RNase inhibitor; washes with 150 and 300 mM NaCl; 4°C; western blot.

Assay [3] has as its target T1, MOV10, helicase and RNA-binding protein (rat) (rat (endogenous in hippocampus and in cultured hippocampal neurons)). Kind of assay: co-IP; MOV10 antibody with protein G-agarose on lysates of cultured rat hippocampal neurons (control or Trim32 shRNA) treated with bicuculline (10 uM) or vehicle for 24 hours, all with lactacystin (10 uM); 50 mM Tris-HCl pH 7.5, 100 mM KCl, 12 mM MgCl2; washes with 300 mM KCl; 4°C; western blot.

As to “p70 S6 kinase (rat) (from UniProt P67999 1-525)”, the binding entry in assay [1] is “binds”.

B1: Trim32, E3 ligase (rat) (protein, UniProt Q66H79 1-655)
chain: MAAAAAASHLNLDALREVLECPICMESFTEEQLRPKLLHCGHTICRQCLEKLLASSINGVRCPFCSKITRITSLTQLTDNLTVLKIIDTAGLSEAVGLLMCRACGRRLPRQFCRSCGLVLCEPCREADHQPPGHCTLPVKEAAEERRRDFGEKLTRLRELTGELQRRKAALEGVSRDLQARYKAVLQEYGHEERRVQEELARSRKFFTGSLAEVEKSNSQVVEEQSYLLNIAEVQAVSRCDYFLAKIKQADVALLEETADEEEPELTASLPRELTLQDVELLKVGHVGPLQIGQAVKKPRTVNMEDSWAVEEGAASSASASVTFREMDMSPEEVVPSPRASPAKQRSSEAASSIQQCLFLKKMGAKGSTPGMFNLPVSLYVTSQSEVLVADRGNYRIQVFNRKGFLKEIRRSPSGIDSFVLSFLGADLPNLTPLSVAMNCHGLIGVTDSYDNSLKVYTLDGHCVACHRSQLSKPWGITALPSGQFVVTDVEGGKLWCFTVDRGAGVVKYSCLCSAVRPKFVTCDAEGTVYFTQGLGLNVENRQNEHHLEGGFSIGSVGPDGQLGRQISHFFSENEDFRCIAGMCVDARGDLIVADSSRKEILHFPKGGGYSVLIREGLTCPVGIALTPKGQLLVLDCWDHCVKIYSYHLRRYSTP
For B1, the binding result in assay [2] and in assay [3] was “binds” each time.

(Values after PMC8610276.)
